The assay has as its target S45Fβ-catenin (V5-tagged, mouse) (mouse) (UniProt Q02248). Description: co-IP.

Sequences of proteins named here, by UniProt entry; tags and fusion partners are left off. A change or cut given only in a name is not applied to a line headed by its entry.
UniProt Q02248: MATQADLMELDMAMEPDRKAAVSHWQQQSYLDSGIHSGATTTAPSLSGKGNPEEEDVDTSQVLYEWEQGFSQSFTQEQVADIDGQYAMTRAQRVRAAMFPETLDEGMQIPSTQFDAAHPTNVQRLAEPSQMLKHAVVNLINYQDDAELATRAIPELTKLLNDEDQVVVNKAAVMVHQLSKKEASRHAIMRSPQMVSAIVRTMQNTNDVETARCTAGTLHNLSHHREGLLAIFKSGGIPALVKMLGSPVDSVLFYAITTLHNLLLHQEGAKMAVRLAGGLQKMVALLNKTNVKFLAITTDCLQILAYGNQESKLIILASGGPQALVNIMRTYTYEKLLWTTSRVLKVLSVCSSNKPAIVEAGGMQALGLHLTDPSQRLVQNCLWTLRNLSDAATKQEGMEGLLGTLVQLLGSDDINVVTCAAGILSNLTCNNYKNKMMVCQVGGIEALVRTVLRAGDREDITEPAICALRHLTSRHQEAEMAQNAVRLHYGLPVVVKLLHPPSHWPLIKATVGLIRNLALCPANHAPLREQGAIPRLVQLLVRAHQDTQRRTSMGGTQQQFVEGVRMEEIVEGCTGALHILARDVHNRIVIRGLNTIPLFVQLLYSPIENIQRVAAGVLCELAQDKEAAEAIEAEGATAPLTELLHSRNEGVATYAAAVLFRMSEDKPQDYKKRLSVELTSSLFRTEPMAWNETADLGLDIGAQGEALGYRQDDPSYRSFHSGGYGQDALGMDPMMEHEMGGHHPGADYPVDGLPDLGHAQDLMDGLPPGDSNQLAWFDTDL
UniProt Q06330: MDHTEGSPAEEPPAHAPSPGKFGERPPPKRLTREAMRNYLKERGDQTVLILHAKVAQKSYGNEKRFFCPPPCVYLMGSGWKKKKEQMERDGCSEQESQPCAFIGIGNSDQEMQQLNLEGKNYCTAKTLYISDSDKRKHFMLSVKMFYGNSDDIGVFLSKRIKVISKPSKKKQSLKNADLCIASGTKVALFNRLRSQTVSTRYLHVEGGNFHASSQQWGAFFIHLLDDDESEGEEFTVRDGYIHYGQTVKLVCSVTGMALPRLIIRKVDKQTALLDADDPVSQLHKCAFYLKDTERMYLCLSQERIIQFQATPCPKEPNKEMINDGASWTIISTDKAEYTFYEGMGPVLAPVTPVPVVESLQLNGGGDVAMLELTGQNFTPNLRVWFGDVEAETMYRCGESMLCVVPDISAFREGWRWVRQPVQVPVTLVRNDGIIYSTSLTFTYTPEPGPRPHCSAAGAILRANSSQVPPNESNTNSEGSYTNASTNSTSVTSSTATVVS

These are yes or no findings as the source states them, for the method shown. In cells and extracts the contact can be indirect.

Regarding RBPj (from UniProt Q06330 1-500), the binding result is on record as “no binding”.

For the origin of these results see doi:10.1101/2020.04.14.037788.
